Reference: paper PMC6639381
These are yes or no findings as the source states them, for the method shown. In cells and extracts the contact can be indirect. Some entries that bind do so weakly or less than the wild type. Where a sequence is shown, tags or fusion partners need not be part of it.

Target: T1, Myc-RARγ (full-length RARγ in pCMV-Myc) (UniProt P13631)
T1 sequence: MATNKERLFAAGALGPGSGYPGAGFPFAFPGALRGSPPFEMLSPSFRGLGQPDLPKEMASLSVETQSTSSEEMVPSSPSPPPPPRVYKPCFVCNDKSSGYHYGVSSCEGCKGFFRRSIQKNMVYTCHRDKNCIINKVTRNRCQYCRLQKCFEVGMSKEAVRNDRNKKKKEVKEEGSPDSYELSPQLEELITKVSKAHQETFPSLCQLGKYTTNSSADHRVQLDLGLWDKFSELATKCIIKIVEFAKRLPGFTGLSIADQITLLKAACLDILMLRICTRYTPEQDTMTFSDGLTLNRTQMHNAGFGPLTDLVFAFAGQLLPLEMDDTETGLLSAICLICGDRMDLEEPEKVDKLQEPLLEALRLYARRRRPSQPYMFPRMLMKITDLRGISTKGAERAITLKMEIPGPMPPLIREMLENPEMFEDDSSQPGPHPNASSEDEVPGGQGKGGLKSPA
Assay: co-IP; HEK293 cells transfected with Myc-RARγ and Flag-FBXO30 or Flag-tagged FBXO30 truncates; immunoprecipitated with anti-Myc, blotted with anti-Flag and anti-Myc

B1: FBXO30-F-box (110–745), Flag-tagged (domain or fragment, UniProt Q8TB52 110-745)
chain: LSRDVDEVAQLDMALALQDQRMLLESLKVATMMSKATDKVSKPREQISVKSSVPEIPHANGLVSVDEESYGALYQATVETTRSLAAALDILNTATRDIGMLNTSVPNDMDEQQNARESLEDQNLKDQDHLYEEEIGAVGGIDYNDTNQNAQSEQNGSSDLLCDLNTSSYDTSALCNGFPLENICTQVIDQNQNLHGDSKQSNLTNGDCVASSDGTSKPSSSLAVAAQLREIIPSSALPNGTVQHILMPDDEGEGELCWKKVDLGDVKNVDVLSFSHAPSFNFLSNSCWSKPKEDKAVDTSDLEVAEDPMGLQGIDLITAALLFCLGDSPGGRGISDSRMADIYHIDVGTQTFSLPSAILATSTMVGEIASASACDHANPQLSNPSPFQTLGLDLVLECVARYQPKQRSMFTFVCGQLFRRKEFSSHFKNVHGDIHAGLNGWMEQRCPLAYYGCTYSQRRFCPSIQGAKIIHDRHLRSFGVQPCVSTVLVEPARNCVLGLHNDHLSSLPFEVLQHIAGFLDGFSLCQLSCVSKLMRDVCGSLLQSRGMVILQWGKRKYPEGNSSWQIKEKVWRFSTAFCSVNEWKFADILSMADHLKKCSYNVVEKREEAIPLPCMCVTRELTKEGRSLRSVLKPVL
binding: binds
